The supplement of paper PMC12067093, “Discovery and optimisation of a covalent ligand for TRIM25 and its application to targeted protein ubiquitination” (Chemical Science, 2025)
The other results are listed elsewhere or left out.

Compound: Cc1cc(ccc1-c1ccccc1)C(=O)N1CCCN(CC1)C(=O)CCl [compound 10]
Experiment: probe-labelled cysteine peptide fold change vs DMSO (competition) (log2 fold change); higher = less target engagement (more negative = stronger competition)
Details: THP-1, incubation time: 4 h
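Note: competitive profiling in live THP-1 cells: cysteine peptides tagged with an iodoacetamide desthiobiotin (IA-DTB) probe, intensity after compound treatment relative to DMSO-treated cells.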

Target	probe-labelled cysteine peptide fold change (10 µM)	probe-labelled cysteine peptide fold change (50 µM)
CINP_Q9BW66_92_LCEELQATLDGLTK (UniProt Q9BW66)	0.291	-0.0536
CLCN3_P51790_733_VCFAQHTPSLPAESPRPLK (UniProt P51790)	0.0452	-0.119
CIC_Q96RK0_336_APGSSSCGAER (UniProt Q96RK0)	-0.332	-0.624
CHM_P24386_102_TIQHVEVFCYASQDLHEDVEEAGALQK (UniProt P24386)	-0.112	0.0483
CHCHD3_Q9NX63_183_RYESHPVCADLQAK (UniProt Q9NX63)	-0.372	-0.179
CLIC1_O00299_59_LCPGGQLPFLLYGTEVHTDTNK (UniProt O00299)	0.0472	0.477
CLIC6_Q96NY7_641_FLDGDELTLADCNLLPK (UniProt Q96NY7)	-0.2	0.264
CLASP2_O75122_528_IPRPSVSQGCSR (UniProt O75122)	-0.118	-0.436
CMC1_Q7Z7K0_77_ECLTAYYNDPAFYEECK (UniProt Q7Z7K0)	-0.309	-0.0941
CHERP_Q8IWX8_69_LALEQQQLICK (UniProt Q8IWX8)	-0.253	0.0379
CLTCL1_P53675_736_YIQAACK (UniProt P53675)	0.0678	-0.212
CHD4_Q14839_1018_CCNHPYLFPVAAMEAPK (UniProt Q14839)	-0.145	-0.259
CFL1_P23528_80_MLPDKDCR (UniProt P23528)	-0.408	-0.881
CKAP5_Q14008_1360_AECLEELGCLVESYGMNVCQPTPGK (UniProt Q14008)	0.0457	0.344
CHD9_Q3L8U1_993_CVIIDEAHR (UniProt Q3L8U1)	-0.188	-0.144
CHORDC1_Q9UHD1_86_ELCELKPK (UniProt Q9UHD1)	-0.237	-0.482
CGGBP1_Q9UFW8_43_LFCTSCNVVLNHVR (UniProt Q9UFW8)	0.169	0.0816
CLUH_O75153_762_DCMEHAVLPVDGATLAEVMR (UniProt O75153)	-0.115	-0.208

Target	probe-labelled cysteine peptide fold change (10 µM)	probe-labelled cysteine peptide fold change (50 µM)
CLSTN1_O94985_261_ISIKPTCTPGWQGWNNR (UniProt O94985)	-0.232	-0.061
CHD4_Q14839_1827_FAEVECLAESHQHLSK (UniProt Q14839)	-0.107	-0.204
CIAPIN1_Q6FI81_237_AASCGEGK (UniProt Q6FI81)	-0.202	-0.685
CIAPIN1_Q6FI81_251_NCTCGLAEELEK (UniProt Q6FI81)	-0.254	-0.998
CHERP_Q8IWX8_190_SPPHCELMAGHLR (UniProt Q8IWX8)	-0.157	-0.164
CIT_O14578_356_FEGLCCHPFFSK (UniProt O14578)	0.00229	0.0304
CHD9_Q3L8U1_1257_FSKPDSDRFVFLLCTR (UniProt Q3L8U1)	0.0548	-0.171
CIAO1_O76071_245_CICTLSGFHSR (UniProt O76071)	-0.0431	-0.0194
CHML_P26374_366_NFLQCLGR (UniProt P26374)	0.116	0.142
CHD1_O14646_1417_TFSICK (UniProt O14646)	0.109	-0.131
CMAS_Q8NFW8_380_EVAYLGNEVSDEECLKR (UniProt Q8NFW8)	-0.0599	0.187
CMIP_Q8IY22_363_NGCQQPCDR (UniProt Q8IY22)	-0.29	-1.18
CIB1_Q99828_134_LVNCLTGEGEDTR (UniProt Q99828)	0.0161	0.198
CMIP_Q8IY22_514_FAEDPRQEVHSCLLSVR (UniProt Q8IY22)	-0.0943	-0.327
CLUH_O75153_1196_CLTQQAVALQR (UniProt O75153)	-0.181	-0.0272
CLUH_O75153_333_IATPFQVYSWTAPQAEHAMDCVR (UniProt O75153)	-0.294	-0.854
CHCHD5_Q9BSY4_22_ELEQYGQCVAAKPESWQR (UniProt Q9BSY4)	-0.00679	0.264
